Data published in patent US20110287547A1, “NUCLEIC ACID DELIVERY COMPOSITIONS AND METHODS” (priority 2008, published 2011).
Part of at least one peptide drawing is inferred or uncertain, most often the ends. Where a SMILES comes first, the peptide text is derived from it.

Key:
[1] = Size of siRNA complexes by DLS, Example 4; format: physicochemical; conditions: across various N/P ratios
[2] = tested on: luciferase in A549-luc-C8 cells; assay: In vitro luciferase gene knockdown studies; format: cell-based, human; conditions: A549-luc-C8, 48 hours

Compound: N=C(N)NCCC[C@H](NC(=O)[C@H](CCCCN)NC(=O)[C@H](CCCCN)NC(=O)[C@H](CCCNC(=N)N)NC(=O)[C@H](CCCNC(=N)N)NC(=O)[C@H](Cc1c[nH]cn1)NC(=O)[C@H](CCCNC(=N)N)NC(=O)[C@H](CCCNC(=N)N)NC(=O)[C@H](CCCNC(=N)N)NC(=O)[C@H](CCC(N)=O)NC(=O)[C@H](CCCNC(=N)N)NC(=O)[C@H](CCCNC(=N)N)NC(=O)[C@H](CCCCN)NC(=O)[C@H](CCCCN)NC(=O)[C@@H](N)CCCNC(=N)N)C(=O)O [dTAT] (H-RKKRRQRRRHRRKKR-OH)
- calcium concentration of smallest particle sizes [1]: 69.2 mM
- calcium concentration of greatest gene silencing [2]: 69.2 mM
